Source: article PMC4742958, “NuSAP governs chromosome oscillation by facilitating the Kid-generated polar ejection force” (Nature Communications, 2016)
No constants are given. Whether binding was seen depends on the method and setting. Binding seen in cells or lysates may run through a third protein. Some results given as binding are weak or reduced against the parent protein; the word gives no strength. For some assays here: Sequences can lack the tags named with a protein.

How the values were obtained:
[1] = target: T1, FLAG-NuSAP (human (cDNA library from HEK 293T cells)) (UniProt Q9BXS6); assay: co-IP; HeLa cells transfected with FLAG-NuSAP, thymidine/nocodazole arrest and release into fresh medium, indicated time points; FLAG M2 beads with lysate 1 h at 4 °C; blotted with anti-Kid
T1 sequence: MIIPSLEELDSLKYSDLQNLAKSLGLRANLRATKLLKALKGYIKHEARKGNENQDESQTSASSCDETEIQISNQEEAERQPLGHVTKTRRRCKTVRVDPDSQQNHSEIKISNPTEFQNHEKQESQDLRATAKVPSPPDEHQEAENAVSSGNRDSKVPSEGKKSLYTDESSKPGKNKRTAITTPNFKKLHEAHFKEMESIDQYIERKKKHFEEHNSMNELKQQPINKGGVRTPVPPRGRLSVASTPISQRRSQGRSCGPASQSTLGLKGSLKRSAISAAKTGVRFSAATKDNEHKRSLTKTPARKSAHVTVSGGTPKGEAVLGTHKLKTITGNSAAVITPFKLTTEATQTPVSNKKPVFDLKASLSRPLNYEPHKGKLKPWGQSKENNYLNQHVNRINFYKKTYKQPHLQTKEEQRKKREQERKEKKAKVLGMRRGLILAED

[2] = target: T2, NuSAP (Nucleolar and Spindle-Associated Protein), endogenous (human (endogenous in HeLa)) (UniProt Q9BXS6); assay: co-IP; endogenous proteins; synchronized HeLa cells shaken off and lysed in M-PER with 10 μg/ml nocodazole; lysate incubated with 2 μg rabbit IgG or NuSAP antibody bound to protein A-Sepharose beads, 1 h at 4 °C; blotted with anti-Kid
T2 sequence: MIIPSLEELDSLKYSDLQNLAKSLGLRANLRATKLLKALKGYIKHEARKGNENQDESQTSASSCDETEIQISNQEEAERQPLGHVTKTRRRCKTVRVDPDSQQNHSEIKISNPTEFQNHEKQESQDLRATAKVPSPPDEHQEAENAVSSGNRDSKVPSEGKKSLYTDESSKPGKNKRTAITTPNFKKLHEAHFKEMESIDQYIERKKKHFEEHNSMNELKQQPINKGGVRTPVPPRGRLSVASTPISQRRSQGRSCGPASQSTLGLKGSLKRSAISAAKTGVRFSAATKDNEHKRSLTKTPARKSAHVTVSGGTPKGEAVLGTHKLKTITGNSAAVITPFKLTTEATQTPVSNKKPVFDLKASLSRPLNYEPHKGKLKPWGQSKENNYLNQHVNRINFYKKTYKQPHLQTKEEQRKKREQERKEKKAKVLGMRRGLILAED

binding [1]: binds
binding [2]: binds
B1: Kid (kinesin-like DNA-binding protein), endogenous (protein, UniProt Q14807 1-665)
chain: MAAGGSTQQRRREMAAASAAAISGAGRCRLSKIGATRRPPPARVRVAVRLRPFVDGTAGASDPPCVRGMDSCSLEIANWRNHQETLKYQFDAFYGERSTQQDIYAGSVQPILRHLLEGQNASVLAYGPTGAGKTHTMLGSPEQPGVIPRALMDLLQLTREEGAEGRPWALSVTMSYLEIYQEKVLDLLDPASGDLVIREDCRGNILIPGLSQKPISSFADFERHFLPASRNRTVGATRLNQRSSRSHAVLLVKVDQRERLAPFRQREGKLYLIDLAGSEDNRRTGNKGLRLKESGAINTSLFVLGKVVDALNQGLPRVPYRDSKLTRLLQDSLGGSAHSILIANIAPERRFYLDTVSALNFAARSKEVINRPFTNESLQPHALGPVKLSQKELLGPPEAKRARGPEEEEIGSPEPMAAPASASQKLSPLQKLSSMDPAMLERLLSLDRLLASQGSQGAPLLSTPKRERMVLMKTVEEKDLEIERLKTKQKELEAKMLAQKAEEKENHCPTMLRPLSHRTVTGAKPLKKAVVMPLQLIQEQAASPNAEIHILKNKGRKRKLESLDALEPEEKAEDCWELQISPELLAHGRQKILDLLNEGSARDLRSLQRIGPKKAQLIVGWRELHGPFSQVEDLERVEGITGKQMESFLKANILGLAAGQRCGAS
